Measurements taken from patent US11066651B2, “Methods and compositions relating to viral latency” (University of Utah Research Foundation, priority 2009, dated 2021).
For at least one compound, name, drawing or mass did not settle the structure.

Columns and labels:
DHIV-infected NP cells = experiment: HIV-1 reactivation by αCD3/CD28 in latently infected NP cells in the presence of signaling inhibitors (intracellular p24 Gag, flow cytometry); format: cell-based, human; conditions: αCD3/CD28 restimulation 3 days, inhibitor at the concentration of b193
Description: (§1) To assess intracellular p24-gag expression, 5×10^5 cells were fixed and permeabilized with Citofix/Cytoperm during 30 min at 4° C. (BD Biosciences, San Diego, Calif.). Cells were washed with Perm/Wash Buffer (BD Biosciences) and stained with 1:40 dilution of anti-p24 antibody (AG3.0) in 100 μl of Perm/Wash Buffer during 30 min at 4° C. Cells were washed with Perm/Wash Buffer and incubated with 1:100 Alexa Fluor 488 goat anti-mouse IgG (H+L) in 100 μl of Perm/Wash Buffer during 30 min at 4° C. Cells were washed with Perm/Wash Buffer and samples were analyzed by flow cytometry. Forward versus side scatter plots were used to define the live population. In all the experiments, HIV p24-gag staining regions were set with uninfected cells treated in parallel.
2.5×10^5 cells were reactivated with beads coated with anti-CD3 and anti-CD28 during 72 hours in the presence of IL-2 (1 bead per cell).
For inhibition studies, cells were preincubated with the indicated inhibitor for 2 hr before stimulation (See Supplementary Methods on line for the concentration of each inhibitor or activator).
To begin to dissect potential signaling pathways leading to virus reactivation, a panel of known signaling inhibitors was tested. […] As a control, and to confirm expectations that the observed latent infections represent post-integration events, the integrase inhibitor, 118-D-24, was tested (FIG. 3A). […]

[1] = system: Latently infected cells (DHIV-infected NP cells); experiment: HIV-1 reactivation in latently infected NP cells by signaling agonists (intracellular p24 Gag, flow cytometry); format: cell-based, human; conditions: agonist 3 days at the concentration of b193
Description: as §1
To complement the inhibitor studies, additional experimentation was conducted using agonists for the above signaling pathways. Latently infected cells were either left untreated or incubated with agonist. As a positive control, cells were treated with αCD3/CD28. The ability of the agonist to promote viral reactivation was then evaluated by detection of intracellular p24^Gag as shown above (FIG. 4). Phytohemagglutinin (PHA), a lectin that binds non-specifically to carbohydrate moieties on surface glycoproteins and acts as a potent polyclonal mitogen for T cells, was the first to be tested. […]

Row | SMILES | effect of inhibitor on viral reactivation (in words) (DHIV-infected NP cells) | ability of agonist to reactivate viral gene expression (in words) [1]
1 | Oc1c2ccccc2c2c3c(cccc13)N=N2 [SP600125] | Neither SP600125 nor PD98059 inhibited viral reactivation | –
2 | COC[C@H]1OC(=O)c2coc3c2[C@@]1(C)C1=C(C3=O)[C@@H]2CCC(=O)[C@@]2(C)C[C@H]1OC(C)=O [Wortmannin] | had no effect on HIV-1 reactivation | –
3 | C=C[C@@]1(C)CC(=O)[C@]2(O)[C@@]3(C)[C@@H](O)CCC(C)(C)[C@@H]3[C@H](O)[C@H](OC(C)=O)[C@@]2(C)O1 [forskolin] | – | failed to reactivate virus gene expression
